According to PMC8072890, “Aminoalkylamides of Eremomycin Exhibit an Improved Antibacterial Activity” (Pharmaceuticals, 2021):

Tested on: S. pneumoniae ATCC 6305
Format: cell-based
Details: sensitive strain; broth dilution micromethod, CLSI; modal values (or range) of 3–5 independent tests
Description: The antimicrobial activity of semisynthetic derivatives of eremomycin 4a–q was studied in comparison with vancomycin on a wide panel of Gram-positive bacteria sensitive (Staphylococcus aureus ATCC 29213, S. aureus R-2, S. haemoliticus 602, S. pneumoniae ATCC 6305, Enteroccus faecium 4, and E. faecalis 559) and resistant to vancomycin (S. aureus 3797, S.aureus 3798, E. faecium 2, E. faecium 3576, E. faecalis 9, E. faecalis 583, and E. gallinarum BΠ 4147), information about the strains given in Table S3. The minimum microbial inhibitory concentration (MIC) for the test compounds was determined by the broth dilution micromethod according to CLSI guidelines, and vancomycin and a standard strain S. aureus ATCC 29213 used as controls (Figure 2 and Tables S4 and S5).
Table S4. Antibacterial activity of vancomycin and derivatives 4a–q against sensitive Gram-positive bacteria.
Strain/MIC (Minimum inhibitory concentration, μg/ml)*
Compound m n R S.aureus АТСС S.aureus R-2 S.haemoliticus S.pneumoniae АТСС E. faecium 4 E. faecalis 559
*MICs are presented as modal values for 3–5 independently replicated MIC tests for each strain and for the antibiotics. In the range of the
obtained MIC values, the obtained modal values are highlighted in bold.

## CN[C@H](CC(C)C)C(=O)N[C@H]1C(=O)N[C@@H](CC(N)=O)C(=O)N[C@H]2C(=O)N[C@H]3C(=O)N[C@H](C(=O)N[C@H](C(=O)O)c4cc(O)cc(O)c4-c4cc3ccc4O)[C@H](O)c3ccc(c(Cl)c3)Oc3cc2cc(c3O[C@@H]2O[C@H](CO)[C@@H](O)[C@H](O)[C@H]2O[C@H]2C[C@](C)(N)[C@H](O)[C@H](C)O2)Oc2ccc(cc2Cl)[C@H]1O [Vancomycin, vancomycin, reference compound]
  MIC S.pneumoniae ATCC 6305: 0,25 μg/ml
